Measured values published in paper PMC4240209.
These are yes or no findings as the source states them, for the method shown. In cells and extracts the contact can be indirect. Some entries that bind do so weakly or less than the wild type. Where a sequence is shown, tags or fusion partners need not be part of it.

Columns and labels:
[1] = molecular target: untagged P23H rod opsin (Rho(P23H)) (UniProt P02699); test: co-IP; SK-N-SH cells co-transfected with untagged rod opsin and ERdj5-HA constructs, 24 h; lysis in 1% DM, 5 mM EDTA in PBS; lysates incubated 2 h with 1D4 antibody against rod opsin (or control IgG) and protein G Dynabeads; blot with anti-HA
[2] = molecular target: untagged WT rod opsin (Rho) (UniProt P02699); test: as above

binding [1]: binds
binding [2]: binds
B1: ERdj5-HA (enzyme, UniProt Q8IXB1 33-793)
chain: DQDFYSLLGVSKTASSREIRQAFKKLALKLHPDKNPNNPNAHGDFLKINRAYEVLKDEDLRKKYDKYGEKGLEDNQGGQYESWNYYRYDFGIYDDDPEIITLERREFDAAVNSGELWFVNFYSPGCSHCHDLAPTWRDFAKEVDGLLRIGAVNCGDDRMLCRMKGVNSYPSLFIFRSGMAPVKYHGDRSKESLVSFAMQHVRSTVTELWTGNFVNSIQTAFAAGIGWLITFCSKGGDCLTSQTRLRLSGMLDGLVNVGWMDCATQDNLCKSLDITTSTTAYFPPGATLNNKEKNSILFLNSLDAKEIYLEVIHNLPDFELLSANTLEDRLAHHRWLLFFHFGKNENSNDPELKKLKTLLKNDHIQVGRFDCSSAPDICSNLYVFQPSLAVFKGQGTKEYEIHHGKKILYDILAFAKESVNSHVTTLGPQNFPANDKEPWLVDFFAPWCPPCRALLPELRRASNLLYGQLKFGTLDCTVHEGLCNMYNIQAYPTTVVFNQSNIHEYEGHHSAEQILEFIEDLMNPSVVSLTPTTFNELVTQRKHNEVWMVDFYSPWCHPCQVLMPEWKRMARTLTGLINVGSIDCQQYHSFCAQENVQRYPEIRFFPPKSNKAYHYHSYNGWNRDAYSLRIWGLGFLPQVSTDLTPQTFSEKVLQGKNHWVIDFYAPWCGPCQNFAPEFELLARMIKGKVKAGKVDCQAYAQTCQKAGIRAYPTVKFYFYERAKRNFQEEQINTRDAKAIAALISEKLETLRNQGKRNKDEL
